# Laboratory results as given in US20220112288A1.
# No constants are given. Whether binding was seen depends on the method and setting.
# B1: CD8B310 (antibody, human IgG1, kappa, V domains shown)
# VH: QVQLKESGPGLVAPSQSLSITCTVSGFSLTNYAVHWVRQSPGKGLEWLGVIWTDGSTDYNAGFISRLSISKDNSKSQVFFKMNSLQADDTAIYYCARNNGYFPAFFAYWGQGTTVTVSS
# VL: DVLMTQTPLSLPVSLGDQASISCRSSQTIVHSNGNTYLEWYLQKPGQSPKLLMYKVSNRFSGVPDRFGGSGSGTDFTLKISRVEAEDLGVYYCFQGSHAPFTFGSGTKLEIKR
# B2: CD8B319 (antibody, human IgG1, kappa, V domains shown)
# VH: QVQLKESGPELKKPGETVKISCKASGYSFTAYYMHWVKQSPEKSLEWIGEINPSAGGTTYNQKFKAKATLTVDKSSSTAFIQLKSLTSEDSAVYYCARWTNPFDYWGQGTTLTVSS
# VL: DIVMTQSQKFMSTTVGDRVSITCKASQNVGTAVAWYQQKPGQSPKLLIYSASYRYTGVPDRFTGSGSGTHFTLTISNIQSEDLADYFCQQYNNYLTFGSGTKLEIKR
# Molecular target: Human CD8αα fused to human Fc (human)
# Assay: SPR (Biacore 8K), mAb captured, single cycle kinetics
row,Binder,binding
1,B1,no binding (tested: 100 nM (highest concentration tested))
2,B2,no binding (tested: 100 nM (highest concentration tested))
